Experimental data reported in PMC7296024.
Results are given in words; binding and its absence hold for the method and conditions named. Binding seen in cells or lysates may run through a third protein. A result given as binding can be weak or reduced; the word gives no strength. For some assays here: Tags and fused reporters may be left off the sequences shown.

Key:
[1] = target: T1, EPN3 as it stood in the in situ proximity ligation assay (human) (UniProt Q9H201); assay: proximity ligation; in situ Duolink PLA (O-link Bioscience, Detection Reagents Orange) for ECAD and EPN3 in cells, with or without TGFβ treatment
T1 sequence: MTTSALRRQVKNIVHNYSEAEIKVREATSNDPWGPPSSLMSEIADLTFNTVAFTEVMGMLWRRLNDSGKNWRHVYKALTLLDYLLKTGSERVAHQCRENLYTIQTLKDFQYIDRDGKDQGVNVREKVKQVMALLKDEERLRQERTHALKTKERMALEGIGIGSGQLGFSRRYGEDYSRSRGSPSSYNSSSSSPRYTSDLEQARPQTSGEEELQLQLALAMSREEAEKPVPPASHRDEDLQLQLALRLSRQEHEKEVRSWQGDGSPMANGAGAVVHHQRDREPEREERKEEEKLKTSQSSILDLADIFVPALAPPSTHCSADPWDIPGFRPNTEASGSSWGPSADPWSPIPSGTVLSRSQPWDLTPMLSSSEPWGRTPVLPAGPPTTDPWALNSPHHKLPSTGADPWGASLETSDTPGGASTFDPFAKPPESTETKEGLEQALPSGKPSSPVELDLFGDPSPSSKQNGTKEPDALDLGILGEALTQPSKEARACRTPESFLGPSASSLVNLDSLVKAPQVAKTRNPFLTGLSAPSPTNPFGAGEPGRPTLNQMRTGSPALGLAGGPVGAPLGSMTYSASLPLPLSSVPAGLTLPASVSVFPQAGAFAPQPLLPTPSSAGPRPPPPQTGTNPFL

[2] = target: T2, Epsin 3 (EPN3), endogenous in MCF10A-Ctr cells (human (endogenous in MCF10A)) (UniProt Q9H201); assay: co-IP; MCF10A-Ctr and MCF10A-EPN3 cells, EGF starved overnight, cross-linked with 1% formaldehyde for 10 min at RT, lysed in RIPA buffer and sonicated; 1 mg lysate, IP with anti-EPN3 rabbit polyclonal Ab (or control IgG) and Protein G, 4 washes in RIPA; immunoblot of partners
T2 sequence: T1 sequence

[3] = target: T3, Flag-EPN3 (full-length human Epsin 3 overexpressed in MCF10A cells) (human) (UniProt Q9H201); assay: as above
T3 sequence: T1 sequence

Row | binding [1] | binding [2] | binding [3] | Substance
1 | binds | binds | binds | E-cadherin (ECAD) (human (endogenous in MCF10A))
2 | – | binds | binds | clathrin (human (endogenous in MCF10A))
